The structures appear in SMILES notation. Values joined by “and” are separate entries in the source; they are usually repeats but may differ in a detail not shown here. Equal entries are not always repeated. The list shows a part of the results. Further columns of the screen follow, without active or inactive calls. Most of these compounds were active or inconclusive in the main read-out, so they are no random draw. Potencies come from curve fits of mixed quality, noted in brackets.

These results are taken from PubChem BioAssay AID1487 (National Center for Advancing Translational Sciences (NCATS), 2009).

The nature of the experiment: qHTS Assay for Modulators of Lamin A Splicing. To be noted: HeLa LMNA splicing GFP/RFP minigene ratio, 48 h. The procedure, abridged:
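S3 HeLa cells stably expressing lamin A-EGFP splicing minigene plus DsRed2, 600 cells/well, 48 h compound exposure at 37C. Laser-scanning cytometry; analysed as GFP (500-530 nm)/RFP (575-640 nm) total intensity ratio; 0.5% DMSO vehicle.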
Background: In qHTS, concentration-response curves come from the screen itself.

[1] abbreviates: measured here: RFP viability control channel.
Setting [2] is: measured here: GFP splicing reporter channel.

As usually defined, the AC50 is the concentration giving half of the maximal activity seen. As to `Cc1nn(-c2ccc(N3CCCC3)nn2)c(C)c1CCC(=O)N1CCN(c2ccccc2F)CC1`, under setting [1], the AC50 is 0.00316 µM [falling, full curve, poor fit].

`CCNc1nc(N)nc(-c2cc(Cl)ccc2O)n1`: the AC50 under setting [1] is 20 µM [falling, partial curve, poor fit].

Consider `COc1ccc(CNC(=O)CCNS(=O)(=O)c2ccc3c(c2)CCCC(=O)N3)cc1`, for which the AC50 under setting [1] was 0.158 µM [falling, full curve].

On to `CCCc1[nH]nc2c1C(c1ccc(Br)s1)C(C#N)=C(N)O2` (stereo not drawn), for which the AC50 runs as follows: under setting [2], 17.8 µM [falling, single point]; under setting [1], 35.5 µM [falling, single point]. With `CCC(C(=O)C(C)C(O)C(C)CCc1ccc(C)c(O)c1C(=O)O)C1OC(CC)(C2CC[C@@](O)(CC)C(C)O2)CC1C` (stereo partly drawn), the AC50 is, setting by setting: under setting [2], 5.01 µM [falling, partial curve, poor fit]; under setting [1], 28.2 µM [falling, single point]. For `O=C(CCc1ccc(S(=O)(=O)NCCc2ccccc2)cc1)Nc1ccc2c(c1)OCCO2`, the AC50 under setting [1] is 10 µM [rising, partial curve]. As to `Cc1ccc(Cl)cc1N(C)C(=O)C1CCCN(c2ncnc3onc(-c4ccc(F)cc4)c23)C1` (stereo not drawn), the AC50 is 0.112 µM [rising, full curve, poor fit] under setting [2] and 2.24 µM [rising, partial curve, poor fit] under setting [1]. With `COc1ccc2c(c1OC)C(=O)N1N=C(c3ccc(Br)cc3)CC21` (stereo not drawn), under setting [1], the AC50 was 20 µM [rising, partial curve, poor fit]. For `N#C/C(=C\c1ccc(-c2ccc(F)cc2)o1)C(=O)Nc1nc(-c2cccs2)cs1`, the AC50 is, setting by setting: under setting [2], 7.08 µM [rising, partial curve]; under setting [1], 8.91 µM [rising, partial curve]. As to `CC(C)SCc1cc(N2CCCC2)nc(-c2ccccc2)n1`, the AC50 under setting [2] was 35.5 µM [rising, single point]. For `O=C(ONC1=NCCCCC1)c1ccc([N+](=O)[O-])cc1`, the AC50 under setting [1] was 11.2 µM [rising, single point]. As to `CCCn1c(CN(C)Cc2ccccc2)nc2c1c(=O)n(C)c(=O)n2C`, the AC50 is, setting by setting: under setting [2], 8.91 µM [rising, partial curve]; under setting [1], 12.6 µM [rising, partial curve]. For the compound `Cc1cc(C)nc(Sc2ncnc3c2oc2ccccc23)n1`, the AC50 under setting [2] was 11.2 µM [falling, partial curve].

Take `CCCCOC(=O)c1ccc(Nc2ncnc3c2cnn3-c2cccc(C)c2)cc1`: the AC50 reads like this: under setting [2], 0.112 µM [falling, full curve]; under setting [1], 0.251 µM [falling, full curve]. As for `CCCCOc1cccc(C(=O)NC(=S)Nc2ccc(Cl)c(C(=O)O)c2)c1`, the AC50 under setting [2] was 0.158 µM [rising, full curve, poor fit]. Turning to `c1ccc(N2CCN(c3ncccn3)CC2)cc1`, the AC50 by setting is: under setting [2], 0.0355 µM [falling, full curve, poor fit]; under setting [1], 0.0178 µM [falling, full curve, poor fit]. With `Cn1cnc([N+](=O)[O-])c1Sc1ncnc2nc[nH]c12`, the AC50 under setting [2] was 3.16 nM [falling, full curve, poor fit] and 316 nM [rising, full curve]; the AC50 under setting [1] is 0.398 µM [rising, full curve]. Turning to `CC(=O)c1cccc(NC(=O)Nc2cc3sccc3n2C)c1`, the AC50 under setting [1] was 22.4 µM [rising, single point]. Take `COc1cccc(N2CCN(c3ncnc4c3c(-c3ccccc3)cn4-c3ccc(F)cc3)CC2)c1`: the AC50 under setting [1] is 2.51 µM [rising, full curve].

Turning to `CC(C)COC(=O)C1C(=O)CC(C)(O)C(C(=O)OCC(C)C)C1c1cccnc1` (stereo not drawn), the AC50 under setting [2] was 1.26 µM [falling, partial curve, poor fit] and the AC50 under setting [1] was 0.0316 µM [falling, full curve, poor fit]. For the compound `COc1ccc(C(=O)C[n+]2cc(-c3ccc(OC)cc3)n3c2CCCC3)cc1`, the AC50 under setting [2] was 35.5 µM [falling, partial curve]. Regarding `Cc1ccn2cc(CCNS(=O)(=O)c3ccc4c(c3)CCCC4)nc2c1`, the AC50 under setting [1] is 12.6 µM [rising, partial curve].

`Cc1cc(C)n(CC(=O)n2c3ccccc3c3ccccc32)n1`: under setting [1], the AC50 was 0.398 µM [falling, partial curve, poor fit]. The same measure, in the same setting: to `COc1ccccc1N1CCN(c2ncnc3c2c(-c2ccccc2)cn3-c2cccc(C)c2)CC1` belongs 20 µM [rising, single point]; to `CCC[C@@H]1C[C@@]1(CCC)[C@@H](NP(=O)(c1ccccc1)c1ccccc1)c1ccc(C(=O)OC)cc1`, 35.5 µM [falling, single point]; to `Cc1ccc(CCNC(=O)C2CCCN(S(=O)(=O)c3c(C)noc3C)C2)cc1` (stereo not drawn), 10 µM [rising, single point]. `COc1cc(S(=O)(=O)N(Cc2ccccc2)CC2CCCO2)ccc1-n1cnnn1` (stereo not drawn): the half-maximal activity concentration (AC50) under setting [2] is 0.00891 µM [rising, partial curve, poor fit]. `CCN1CCN(c2ncnc3c2cnn3-c2cc(Cl)ccc2C)CC1`: under setting [1], the concentration at half-maximal activity (AC50) was 20 µM [rising, partial curve, poor fit].

For `Cn1nnc2c(sc3nc(N4CCOCC4)c4c(c32)CCCC4)c1=O`, the AC50 under setting [1] was 4.47 µM [rising, single point]. Regarding `COc1cc(/C=C/C(=O)c2ccc(C)cc2)ccc1OCC#N`, the concentration at half-maximal activity (AC50) is 35.5 µM [falling, single point] under setting [2] and 15.8 µM [falling, single point] under setting [1]. With `CCn1c2ccccc2c2cc(NC(=O)c3cccc(OC)c3)ccc21`, the AC50 under setting [1] was 10 µM [rising, partial curve]. In the case of `COc1ccc(CNC(=O)c2cc(-c3cccs3)on2)cc1`, the AC50 is, setting by setting: under setting [2], 22.4 µM [rising, single point]; under setting [1], 22.4 µM [rising, single point]. Regarding `O=c1c(O[C@@H]2O[C@H](CO)[C@H](O)[C@H](O)[C@H]2O)c(-c2ccc(O)c(O)c2)oc2cc(O)cc(O)c12`, the AC50 under setting [1] was 28.2 µM [falling, partial curve, poor fit].

In the case of `COc1ccc(-c2ccc(=O)n(CC(=O)Nc3ccc(OC)c(OC)c3)n2)cc1`, the AC50 under setting [1] is 1.26 µM [falling, full curve, poor fit]. Turning to `Nc1nc(Cl)nc2c1ncn2[C@@H]1O[C@H](CO)[C@@H](O)[C@H]1O`, the concentration at half-maximal activity (AC50) reads like this: under setting [2], 4.47 µM [falling, single point] and 35.5 µM [falling, single point]; under setting [1], 35.5 µM [falling, single point] and 10 µM [rising, single point]. Consider `CC1CCCCN1S(=O)(=O)c1ccc(S(=O)(=O)NCCc2ccncc2)cc1` (stereo not drawn), for which the AC50 was 35.5 µM [rising, single point] under setting [2] and 35.5 µM [rising, single point] under setting [1]. For `Cn1c(=O)c2c(SCC(=O)N3CCc4ccccc43)nc(-c3ccc(Cl)cc3)nc2n(C)c1=O`, under setting [2], the AC50 is 0.0251 µM [rising, full curve, poor fit]. As for `O=c1[nH]c2ccccc2n1CCCN1CCN(C(c2ccccc2)c2ccccc2)CC1`, the AC50 is 20 µM [rising, partial curve, poor fit] under setting [2] and 22.4 µM [rising, partial curve] under setting [1]. For `O=S(=O)(c1ccccc1)c1ccccc1/C=N\O`, the AC50 under setting [2] was 35.5 µM [rising, single point].

With `CC(C)=C1SC(N2CCN(c3cccc(Cl)c3)CC2)=NC1=O`, the AC50 under setting [1] was 11.2 µM [rising, single point]. Regarding `CC(O)c1c(OCc2ccccc2)ncnc1OCc1ccccc1` (stereo not drawn), under setting [1], the AC50 was 6.31 µM [rising, full curve, poor fit]. In the case of `COc1cccc(-c2cncnc2NCc2cnc(C)cn2)c1`, the half-maximal activity concentration (AC50) was 7.94 µM [falling, partial curve] under setting [2] and 8.91 µM [falling, partial curve] under setting [1]. In the case of `N#Cc1c(NC(=S)NC(=O)C2CCCC2)sc2c1CCCCC2`, under setting [1], the AC50 was 12.6 µM [rising, partial curve]. Take `CCCCn1ccnc1C(=O)c1cc(S(=O)(=O)N2CCOCC2)ccc1C`: the AC50 runs as follows: under setting [2], 11.2 µM [rising, partial curve, poor fit]; under setting [1], 10 µM [rising, partial curve]. Turning to `Cc1ccc2c(c1)cc(CN(Cc1ccco1)C(=O)N1CCOCC1)c1nnnn12`, the half-maximal activity concentration (AC50) under setting [2] was 0.02 µM [falling, full curve, poor fit]. For `CCC(=O)Nc1ccc(C(=O)NNC(=O)COc2cc(C)ccc2C)cc1`, under setting [1], the AC50 is 12.6 µM [rising, single point].

Take `CN(C)c1ccc(NC(=O)C2CCCN(S(=O)(=O)c3ccccc3)C2)cc1` (stereo not drawn): the AC50 runs as follows: under setting [2], 0.398 µM [falling, full curve, poor fit]; under setting [1], 0.631 µM [falling, full curve, poor fit]. For the compound `COc1ccc(CCNC(=S)N2CCC(Cc3ccccc3)CC2)cc1OC`, the AC50 under setting [1] was 7.94 µM [rising, partial curve]. Consider `CCOC(=O)c1ccc(NS(=O)(=O)c2ccc3c(c2)oc(=O)n3C)cc1`, for which the AC50 under setting [2] was 20 µM [rising, partial curve] and the AC50 under setting [1] is 25.1 µM [rising, partial curve]. In the case of `O=C(O)Cc1cn(Cc2cccc(Cl)c2)c2ccccc12`, the AC50 under setting [1] is 14.1 µM [falling, single point].

With `COc1ccccc1NC(=S)N/N=C/c1ccc(O)cc1`, the concentration at half-maximal activity (AC50) runs as follows: under setting [2], 25.1 µM [falling, single point]; under setting [1], 14.1 µM [falling, single point]. As for `O=C(NCCc1ccccc1)C(=Cc1ccc(C(=O)O)cc1)C(=O)NCCc1ccccc1`, the AC50 under setting [1] was 35.5 µM [rising, single point]. As to `Cc1ccc(-c2cc(C(F)F)nc(NCc3cccnc3)n2)cc1`, the AC50 was 10 µM [rising, single point] under setting [2] and 17.8 µM [rising, single point] under setting [1].
